Experimental data from patent publication US20250270200A1, “CTPS1 INHIBITORS AND USES THEREOF” (Nimbus Clotho, Inc., priority 2022, published 2025).
Where “and” joins values, the source holds several entries; their conditions need not be identical. Equal entries are not always repeated. Structures were worked out from names or drawings and are uncertain.

Target: human CTPS1 (Homo sapiens, UniProt P17812)
Assay: ADP-Glo assay, human CTPS1 enzyme inhibition
Assay type: biochemical
Settings: read-out: ADP-Glo_WT_hCTPS1—25 nM_IC50 (IC50), wild-type human CTPS1, 25 nM enzyme
Method: The enzyme inhibitory activities of the compounds of the invention against the target of interest were determined using the ADP-Glo™ assay (Promega). Assays for human CTPS1 and CTPS2 were performed in 1× assay buffer containing 50 mM HEPES (Life Technologies), 10 mM Mg2+, 5 mM KCl, 2 mM DTT, 0.01% F-127, pH to 7.4 accordingly. All reagents are from Sigma-Aldrich, unless specified otherwise. Purified human full length active N-terminal FLAG-8×HIS-TEV tagged CTPS1 (UniprotKB—P17812, […]-CTPS1[1-591]) was generated using a mammalian expression system at Viva Biotech (Shanghai) Ltd.
Purified human CTPS1 protein was prepared in 1× assay buffer to the final working protein concentration required for the reaction. A 2.5 μL volume per well of human CTPS 1 protein was mixed with 0.1 μL per well of test compound dissolved in DMSO and pre-incubated at 25 degrees C. for 10 minutes. 2.5 μL per well of the reaction precursors ATP (UltraPure ATP from ADP-Glo™ kit) and UTP were then added and pre-incubated for an additional 10 minutes at 25 degrees C. Finally, the reaction was initiated by the addition of 5 μL of the reaction precursors L-glutamine and GTP. The final concentration of all reaction components in the assay: ATP (120 μM), UTP (160 μM), GTP (60 μM), L-Glutamine (100 μM), DMSO (1%), hCTPS1 (25 nM). This mixture was incubated for an appropriate amount of time within the determined linear phase of the reaction at 25 degrees C. under sealed plate conditions with constant agitation at 500 revolutions per minute (rpm). ADP-Glo™ reagent was added for 60 minutes (10 μL per well) and subsequently ADP-Glo™ development reagent was added for 60 minutes (20 μL per well) prior to signal detection in a microplate reader (Envision Multilabel Reader, Perkin Elmer). Following each reagent addition over the course of the assay, assay plates were pulse centrifuged for 1 minute at 1000 rpm.
The enzyme converts ATP to ADP and the ADP-Glo™ reagent subsequently depletes any remaining ATP in the reaction system. The ADP-Glo™ detection reagents converts the ADP that has been produced by the enzyme back into ATP, which is then utilized as a substrate together with luciferin for the enzyme luciferase. Light generated by this chemiluminescent reaction is quantified and is directly proportional to the amount of ADP produced by the CTPS1 enzyme reaction. […]

In the case of `CCOc1cncc(-c2cnc(NC(=O)Cc3cc(NS(=O)(=O)C4CC4)ccn3)s2)n1`, the IC50 is reported as > 0.1 µM and 0.05 to 0.1 µM.

First: CCOc1cncc(-c2cnc(C(=O)N[C@@H](Cn3ccnn3)c3cc(NS(=O)(=O)C4CC4)ccn3)s2)n1 (single isomer, unassigned)
Second: CCOc1cncc(-c2cc(F)c(C(=O)NCc3cc(NS(=O)(=O)C4CC4)ccn3)cc2F)n1
The IC50 of the first is higher: 0.025 to 0.05 µM for the first, 0.005 to 0.025 µM for the second. The second is the more potent here.

For `C[C@H](CN1CCCCC1)[C@@H](NC(=O)c1ncc(-c2cnn3ccc(Cl)cc23)s1)c1cc(NS(=O)(=O)C2CC2)ccn1`, the IC50 was 0.005 to 0.025 µM.
